These are yes or no findings as the source states them, for the method shown. Some binding calls cover weakened binding; strength is not graded here.

Amino acid sequences for entries named in this document (tags omitted). A change or cut given only in a name is not applied to a line headed by its entry.
UniProt P02452: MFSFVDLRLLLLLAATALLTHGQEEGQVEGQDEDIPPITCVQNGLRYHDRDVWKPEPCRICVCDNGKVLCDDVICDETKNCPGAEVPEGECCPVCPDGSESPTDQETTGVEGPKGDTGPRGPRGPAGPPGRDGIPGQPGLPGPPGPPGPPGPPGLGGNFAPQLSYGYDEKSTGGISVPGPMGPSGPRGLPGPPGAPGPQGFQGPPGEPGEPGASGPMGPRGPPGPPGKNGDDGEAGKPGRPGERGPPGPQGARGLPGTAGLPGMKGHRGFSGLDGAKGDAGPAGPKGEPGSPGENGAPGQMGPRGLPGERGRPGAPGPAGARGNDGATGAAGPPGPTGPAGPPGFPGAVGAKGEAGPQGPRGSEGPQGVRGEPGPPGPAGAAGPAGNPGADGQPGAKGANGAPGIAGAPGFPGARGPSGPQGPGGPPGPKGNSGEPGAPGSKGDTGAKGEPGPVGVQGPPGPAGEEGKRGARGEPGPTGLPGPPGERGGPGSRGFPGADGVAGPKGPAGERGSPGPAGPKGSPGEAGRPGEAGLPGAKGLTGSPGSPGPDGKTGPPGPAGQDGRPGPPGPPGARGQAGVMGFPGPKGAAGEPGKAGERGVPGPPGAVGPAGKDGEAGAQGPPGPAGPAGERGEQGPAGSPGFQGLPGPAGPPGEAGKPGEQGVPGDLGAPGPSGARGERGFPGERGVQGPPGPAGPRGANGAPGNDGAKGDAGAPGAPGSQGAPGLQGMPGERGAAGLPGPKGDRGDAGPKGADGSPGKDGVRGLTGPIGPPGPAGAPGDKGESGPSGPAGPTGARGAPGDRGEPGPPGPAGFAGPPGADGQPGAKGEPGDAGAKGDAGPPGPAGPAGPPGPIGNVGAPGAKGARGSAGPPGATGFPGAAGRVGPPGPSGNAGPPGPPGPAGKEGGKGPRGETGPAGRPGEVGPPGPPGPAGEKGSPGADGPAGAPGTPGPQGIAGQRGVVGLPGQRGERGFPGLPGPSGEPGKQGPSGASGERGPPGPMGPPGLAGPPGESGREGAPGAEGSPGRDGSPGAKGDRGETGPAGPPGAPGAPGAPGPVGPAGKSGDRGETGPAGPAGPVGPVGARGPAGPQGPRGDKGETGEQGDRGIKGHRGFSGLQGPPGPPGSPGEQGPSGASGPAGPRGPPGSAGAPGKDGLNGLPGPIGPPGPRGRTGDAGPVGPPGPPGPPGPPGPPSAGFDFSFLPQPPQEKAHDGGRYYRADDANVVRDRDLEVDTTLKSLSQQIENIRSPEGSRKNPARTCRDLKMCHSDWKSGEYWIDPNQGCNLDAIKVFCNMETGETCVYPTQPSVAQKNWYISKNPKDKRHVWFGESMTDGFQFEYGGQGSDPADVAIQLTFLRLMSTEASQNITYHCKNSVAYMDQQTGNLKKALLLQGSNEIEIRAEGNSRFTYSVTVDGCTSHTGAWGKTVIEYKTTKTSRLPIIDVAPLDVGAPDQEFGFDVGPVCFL
UniProt P08123: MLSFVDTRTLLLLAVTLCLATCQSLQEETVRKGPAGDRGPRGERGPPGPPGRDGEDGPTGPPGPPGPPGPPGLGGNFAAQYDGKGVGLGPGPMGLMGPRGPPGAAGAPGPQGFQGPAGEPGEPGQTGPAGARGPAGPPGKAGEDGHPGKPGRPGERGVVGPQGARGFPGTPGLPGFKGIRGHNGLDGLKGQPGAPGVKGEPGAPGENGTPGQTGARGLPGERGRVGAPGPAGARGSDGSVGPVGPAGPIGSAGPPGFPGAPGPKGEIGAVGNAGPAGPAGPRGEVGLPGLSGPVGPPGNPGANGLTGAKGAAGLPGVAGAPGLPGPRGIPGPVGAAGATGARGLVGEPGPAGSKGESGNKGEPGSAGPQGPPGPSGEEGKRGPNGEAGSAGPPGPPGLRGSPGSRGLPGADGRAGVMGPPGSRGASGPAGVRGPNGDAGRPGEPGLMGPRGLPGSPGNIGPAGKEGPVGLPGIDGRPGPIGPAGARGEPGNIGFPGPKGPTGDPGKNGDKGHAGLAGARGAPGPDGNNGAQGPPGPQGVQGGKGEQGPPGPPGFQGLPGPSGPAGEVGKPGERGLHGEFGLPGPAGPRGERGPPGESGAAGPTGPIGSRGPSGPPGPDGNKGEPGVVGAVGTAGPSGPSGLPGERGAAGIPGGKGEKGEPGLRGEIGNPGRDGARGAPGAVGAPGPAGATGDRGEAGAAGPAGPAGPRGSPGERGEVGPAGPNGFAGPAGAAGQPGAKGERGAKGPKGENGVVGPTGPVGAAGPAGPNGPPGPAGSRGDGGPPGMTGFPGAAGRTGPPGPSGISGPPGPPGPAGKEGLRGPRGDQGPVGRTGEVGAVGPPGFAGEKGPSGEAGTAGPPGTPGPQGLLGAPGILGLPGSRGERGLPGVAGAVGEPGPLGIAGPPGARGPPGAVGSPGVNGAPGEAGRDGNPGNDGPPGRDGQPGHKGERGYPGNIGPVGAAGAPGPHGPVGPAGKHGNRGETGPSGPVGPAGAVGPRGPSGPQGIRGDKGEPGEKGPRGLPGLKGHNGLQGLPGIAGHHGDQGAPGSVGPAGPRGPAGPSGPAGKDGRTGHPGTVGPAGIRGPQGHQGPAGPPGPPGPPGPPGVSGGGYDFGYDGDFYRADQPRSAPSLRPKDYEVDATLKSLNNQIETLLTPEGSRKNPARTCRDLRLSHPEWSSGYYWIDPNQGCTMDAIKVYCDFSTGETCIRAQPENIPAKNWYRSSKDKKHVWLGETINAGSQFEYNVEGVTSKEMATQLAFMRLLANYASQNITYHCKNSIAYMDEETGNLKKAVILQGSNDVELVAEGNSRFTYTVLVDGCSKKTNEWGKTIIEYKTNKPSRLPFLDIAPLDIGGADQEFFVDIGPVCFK

The source of these data is article PMC2829074.

The target in this assay is human placenta soluble collagen Type I (human) (UniProt P02452+P08123). The assay is described as follows: ELISA; specificity, solid-phase binding assay: VTNC (25 ng), fibrilar collagen (50 ng), ixolaris (75 ng), soluble collagen and laminin (100 ng) immobilized per well, Cyr61 30 nM in PBS-T for 90 minutes, detected with anti-Cyr61 monoclonal antibody; both purified. In general terms: An ELISA detects its analyte on a solid surface through an enzyme-linked reagent.

B1: Cyr61/CCN1 (protein, UniProt O00622 25-381)
chain: TCPAACHCPLEAPKCAPGVGLVRDGCGCCKVCAKQLNEDCSKTQPCDHTKGLECNFGASSTALKGICRAQSEGRPCEYNSRIYQNGESFQPNCKHQCTCIDGAVGCIPLCPQELSLPNLGCPNPRLVKVTGQCCEEWVCDEDSIKDPMEDQDGLLGKELGFDASEVELTRNNELIAVGKGSSLKRLPVFGMEPRILYNPLQGQKCIVQTTSWSQCSKTCGTGISTRVTNDNPECRLVKETRICEVRPCGQPVYSSLKKGKKCSKTKKSPEPVRFTYAGCLSVKKYRPKYCGSCVDGRCCTPQLTRTVKMRFRCEDGETFSKNVMMIQSCKCNYNCPHANEAAFPFYRLFNDIHKFRD
In the case of B1, the binding result is given as “binds”.
